Experimental data taken from patent US7129234B2, “Phenyl heterocyclyl ethers” (Pfizer Inc., priority 2001, dated 2006).
Some entries share one result that the patent states for a list of compounds.

The chains behind the UniProt entries cited, without tags or fusion partners.
UniProt P31645, whole entry: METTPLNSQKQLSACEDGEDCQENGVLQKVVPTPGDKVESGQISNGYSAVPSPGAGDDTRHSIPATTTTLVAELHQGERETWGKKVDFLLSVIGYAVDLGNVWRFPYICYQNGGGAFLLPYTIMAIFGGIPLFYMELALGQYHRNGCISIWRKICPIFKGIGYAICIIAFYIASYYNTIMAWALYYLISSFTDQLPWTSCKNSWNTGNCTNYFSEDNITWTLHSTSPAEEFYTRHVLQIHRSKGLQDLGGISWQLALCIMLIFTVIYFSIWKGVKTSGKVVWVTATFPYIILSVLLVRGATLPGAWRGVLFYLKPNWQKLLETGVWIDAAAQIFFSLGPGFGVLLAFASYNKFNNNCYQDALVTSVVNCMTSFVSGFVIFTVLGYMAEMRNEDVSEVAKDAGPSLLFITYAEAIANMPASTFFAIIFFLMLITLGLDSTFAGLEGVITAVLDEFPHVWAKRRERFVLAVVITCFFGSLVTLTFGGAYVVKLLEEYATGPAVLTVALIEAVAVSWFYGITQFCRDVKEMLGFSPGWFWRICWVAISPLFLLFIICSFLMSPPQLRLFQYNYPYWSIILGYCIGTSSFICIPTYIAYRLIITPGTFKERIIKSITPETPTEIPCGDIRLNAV
UniProt Q01959, whole entry: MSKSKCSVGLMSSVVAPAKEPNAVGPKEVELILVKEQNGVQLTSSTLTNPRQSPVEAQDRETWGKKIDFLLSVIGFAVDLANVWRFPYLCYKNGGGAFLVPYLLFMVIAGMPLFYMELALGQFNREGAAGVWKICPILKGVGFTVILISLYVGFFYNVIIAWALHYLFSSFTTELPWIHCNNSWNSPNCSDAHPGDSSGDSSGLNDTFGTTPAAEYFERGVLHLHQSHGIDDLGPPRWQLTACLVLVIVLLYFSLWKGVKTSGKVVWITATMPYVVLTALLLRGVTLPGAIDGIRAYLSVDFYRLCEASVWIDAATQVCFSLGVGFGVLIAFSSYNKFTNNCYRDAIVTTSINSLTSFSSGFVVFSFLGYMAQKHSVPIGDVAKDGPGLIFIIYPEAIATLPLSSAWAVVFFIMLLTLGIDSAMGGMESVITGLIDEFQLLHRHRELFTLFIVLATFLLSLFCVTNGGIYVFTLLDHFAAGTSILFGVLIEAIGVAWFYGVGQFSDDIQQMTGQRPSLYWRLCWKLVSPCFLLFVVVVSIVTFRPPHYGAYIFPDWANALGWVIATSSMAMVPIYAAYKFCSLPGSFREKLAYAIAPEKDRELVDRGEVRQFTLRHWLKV
UniProt P23975, whole entry: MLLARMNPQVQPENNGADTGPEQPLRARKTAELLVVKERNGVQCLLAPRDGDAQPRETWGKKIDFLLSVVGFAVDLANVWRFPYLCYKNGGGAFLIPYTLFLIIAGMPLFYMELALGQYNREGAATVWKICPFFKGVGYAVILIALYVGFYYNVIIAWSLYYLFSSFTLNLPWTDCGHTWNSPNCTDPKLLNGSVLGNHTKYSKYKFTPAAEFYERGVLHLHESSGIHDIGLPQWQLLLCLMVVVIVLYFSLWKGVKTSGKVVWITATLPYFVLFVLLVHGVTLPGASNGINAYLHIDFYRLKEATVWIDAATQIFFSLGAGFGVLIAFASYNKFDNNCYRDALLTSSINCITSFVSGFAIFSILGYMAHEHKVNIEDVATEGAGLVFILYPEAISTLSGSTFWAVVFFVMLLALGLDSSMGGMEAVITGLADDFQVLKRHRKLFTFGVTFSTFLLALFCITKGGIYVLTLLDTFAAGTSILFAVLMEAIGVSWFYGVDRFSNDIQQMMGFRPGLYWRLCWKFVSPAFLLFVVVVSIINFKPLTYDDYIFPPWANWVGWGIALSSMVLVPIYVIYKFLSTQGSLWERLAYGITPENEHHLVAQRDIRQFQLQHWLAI

How the values were obtained:
Assay type in all cases: cell-based
[1] = target: T1, human serotonin transporter (hSERT) (Homo sapiens, UniProt P31645); test: Inhibition of 3H-serotonin uptake by HEK-293 cells transfected with hSERT; details: for IC50: HEK-293 cells expressing hSERT, 3H-5HT 50 nM, 5 min incubation, read-out: serotonin re-uptake inhibition (SRI) IC50; for fold as potent in the inhibition of serotonin re-uptake than in the inhibition of dopamine re-uptake or noradrenaline re-uptake: selectivity hSERT over hDAT or hNET (at least one)
T1 construct: expressed in transfected cells; host or cells: HEK-293

[2] = target: T2, dopamine transporter (hDAT) (Homo sapiens, UniProt Q01959); test: Inhibition of 3H-dopamine uptake by HEK-293 cells transfected with hDAT; details: selectivity hSERT over hDAT
T2 construct: expressed in transfected cells; host or cells: HEK-293

[3] = target: T3, noradrenaline transporter (hNET) (Homo sapiens, UniProt P23975); test: Inhibition of 3H-noradrenaline uptake by HEK-293 cells transfected with hNET; details: selectivity hSERT over hNET
T3 construct: expressed in transfected cells; host or cells: HEK-293

| Compound | IC50 [1] [nM] | fold as potent in the inhibition of serotonin re-uptake than in the inhibition of dopamine re-uptake or noradrenaline re-uptake [1] | fold as potent in the inhibition of serotonin re-uptake than in the inhibition of dopamine re-uptake [2] | fold as potent in the inhibition of serotonin re-uptake than in the inhibition of noradrenaline re-uptake [3] |
| --- | --- | --- | --- | --- |
| CNCc1cnccc1Oc1cc(C)c2c(c1)OCCS2 [Example 28] | ≤ 25 | more than 100 fold | more than 100 fold | more than 100 fold |
| CNCc1cnccc1Oc1ccc(Cl)c(SC)c1 [Example 33] | ≤ 25 | more than 100 fold | more than 100 fold | more than 100 fold |
| CNCc1cnccc1Oc1ccc2c(c1)SCCO2 [Example 30] | ≤ 25 | more than 100 fold | more than 100 fold | more than 100 fold |
| CNCc1ccncc1Oc1ccc(SC)c(C)c1 [Example 38] | ≤ 25 | more than 100 fold | more than 100 fold | more than 100 fold |
| CCc1ccc(Oc2ccncc2CNC)cc1SC [Example 31] | ≤ 25 | more than 100 fold | more than 100 fold | more than 100 fold |
| CNCc1cnc(C)cc1Oc1ccc2c(c1)OCCS2 [Example 48, N-{[4-(2,3-Dihydro-1,4-benzoxathiin-7-yloxy)-6-methyl-3-pyridinyl]methyl}-N-methylamine] | ≤ 25 | more than 100 fold | more than 100 fold | more than 100 fold |
